Measurements reported in PubChem BioAssay AID1259254 (NCATS, 2017).
Aim: 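Gene knock-downs that lead to re-replication, shown by excess G2 DNA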 (primary screen). Cell system: human HCT116 colorectal cancer cells. Reagents: single siRNA against human genes. Timing: 3 days. Measured: 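Imaged Hoechst DNA stain sorts each cell into a cycle phase by DNA amount; per plate, G2 fraction set to 0% for non-targeting and 100% for GMNN siRNA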. Scale: G2 robust z-score and G2 cells, % of GMNN control: higher = more G2 cells, more excess DNA replication; raw share of cells in G2: higher = larger share of cells with G2 DNA content. Active means: 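Active siRNAs have a G2 robust z of 5 or more median absolute deviations over the median, which in these data means about 38% or higher of GMNN control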.
This is one part, drawn at random, of about 59,000 reagents. In the full data, about 1,550 (2.6%) were called active. 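G2 share is only a proxy for re-replication; each gene was hit by three separate siRNAs, and active genes were retested.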 The raw values are shown without normalisation. The numbers tell different reagents against one gene apart. The record does not give: the amount of reagent.

| gene symbol | reagent no. | G2 robust z-score | G2 cells, % of GMNN control | raw share of cells in G2 (%) | activity call |
| --- | --- | --- | --- | --- | --- |
| SLC7A3 | 1 | 3.18 | 25.4 | 17.5 | inactive |
| SLC7A3 | 2 | 2.08 | 17.6 | 12.5 | inactive |
| SLC7A3 | 3 | -0.183 | 1.68 | 5.11 | inactive |
| EFR3B | 1 | -1.31 | -6.23 | 2.54 | inactive |
| EFR3B | 2 | 0.286 | 4.98 | 6.19 | inactive |
| EFR3B | 3 | 0.686 | 7.8 | 6.09 | inactive |
| STARD9 | 1 | 1.71 | 15 | 10.3 | inactive |
| STARD9 | 2 | -0.413 | 0.0618 | 4.49 | inactive |
| STARD9 | 3 | -0.586 | -1.16 | 2.66 | inactive |
| ATG101 | 1 | 0.0825 | 3.55 | 6.13 | inactive |
| ATG101 | 2 | 1.02 | 10.1 | 9.15 | inactive |
| ATG101 | 3 | 0.718 | 8.02 | 4.81 | inactive |
| KLK13 | 1 | -0.476 | -0.38 | 5.43 | inactive |
| KLK13 | 2 | -0.338 | 0.591 | 5.12 | inactive |
| KLK13 | 3 | 0.408 | 5.84 | 6.09 | inactive |
| EFNA2 | 1 | -0.0418 | 2.67 | 4.61 | inactive |
| EFNA2 | 2 | 7.97 | 59.1 | 27.7 | active |
| EFNA2 | 3 | 4.31 | 33.3 | 17.3 | inactive |
| LILRA4 | 1 | 2.89 | 23.3 | 15.7 | inactive |
| LILRA4 | 2 | -0.402 | 0.141 | 4.2 | inactive |
| LILRA4 | 3 | 0.267 | 4.84 | 5.52 | inactive |
| HNF1B | 1 | 3.63 | 28.5 | 14.8 | inactive |
| HNF1B | 2 | 0.517 | 6.61 | 7.2 | inactive |
| HNF1B | 3 | 1.33 | 12.3 | 8.25 | inactive |
| CCSER2 | 1 | 1.32 | 12.3 | 8 | inactive |
| CCSER2 | 2 | 2.78 | 22.5 | 13.8 | inactive |
| CCSER2 | 3 | -0.827 | -2.85 | 2.25 | inactive |
| CCDC190 | 1 | 0.0525 | 3.34 | 5.13 | inactive |
| CCDC190 | 2 | 0.185 | 4.27 | 5.13 | inactive |
| CCDC190 | 3 | -0.364 | 0.406 | 4.35 | inactive |
| STRC | 1 | 3.48 | 27.4 | 13.4 | inactive |
| STRC | 2 | -0.617 | -1.37 | 2.5 | inactive |
| STRC | 3 | 1.37 | 12.6 | 6.75 | inactive |
| SMAD4 | 1 | -0.808 | -2.72 | 4.31 | inactive |
| SMAD4 | 2 | -1.29 | -6.11 | 1.18 | inactive |
| SMAD4 | 3 | 4.13 | 32 | 18.2 | inactive |
| CCM2 | 1 | -0.328 | 0.656 | 4.33 | inactive |
| CCM2 | 2 | 1.36 | 12.5 | 7.17 | inactive |
| CCM2 | 3 | -0.641 | -1.55 | 1.94 | inactive |
| KRTAP17-1 | 1 | 0.477 | 6.32 | 4.32 | inactive |
| KRTAP17-1 | 2 | -0.154 | 1.88 | 4.73 | inactive |
| KRTAP17-1 | 3 | 0.967 | 9.77 | 6.35 | inactive |
| SLC39A5 | 1 | 0.0436 | 3.27 | 6.24 | inactive |
| SLC39A5 | 2 | 0.42 | 5.92 | 6.45 | inactive |
| SLC39A5 | 3 | 2.55 | 20.9 | 15 | inactive |
| MOK | 1 | -1.03 | -4.29 | 4.19 | inactive |
| MOK | 2 | 2.52 | 20.7 | 12.4 | inactive |
| MOK | 3 | -1.07 | -4.56 | 2.42 | inactive |
| PLEC | 1 | 0.985 | 9.9 | 9.18 | inactive |
| PLEC | 2 | -1.01 | -4.11 | 2.6 | inactive |
| PLEC | 3 | 5.09 | 38.8 | 17.4 | active |
| ABHD6 | 1 | -1.08 | -4.64 | 2.54 | inactive |
| ABHD6 | 2 | -0.67 | -1.75 | 4.92 | inactive |
| ABHD6 | 3 | 0.672 | 7.7 | 7.07 | inactive |
| POC1B | 1 | 0.429 | 5.98 | 5.82 | inactive |
| POC1B | 2 | 2.42 | 20 | 10.8 | inactive |
| POC1B | 3 | 0.305 | 5.11 | 4.82 | inactive |
| DNAJC9 | 1 | -0.0111 | 2.89 | 4.49 | inactive |
| DNAJC9 | 2 | -1.02 | -4.19 | 4.12 | inactive |
| DNAJC9 | 3 | 1.13 | 10.9 | 7.91 | inactive |
| TEX12 | 1 | -0.403 | 0.131 | 4.4 | inactive |
| TEX12 | 2 | -0.571 | -1.05 | 3.96 | inactive |
| TEX12 | 3 | 1.16 | 11.1 | 6.56 | inactive |
| EME1 | 1 | 0.663 | 7.64 | 6.39 | inactive |
| EME1 | 2 | 1.89 | 16.2 | 7.93 | inactive |
| EME1 | 3 | -0.227 | 1.37 | 3.55 | inactive |
| GNAO1 | 1 | -0.153 | 1.89 | 4.33 | inactive |
| GNAO1 | 2 | -1.44 | -7.17 | 2.64 | inactive |
| GNAO1 | 3 | -0.46 | -0.266 | 5.16 | inactive |
| SUN2 | 1 | 3.61 | 28.4 | 15.1 | inactive |
| SUN2 | 2 | 0.464 | 6.23 | 6.64 | inactive |
| SUN2 | 3 | 0.957 | 9.7 | 6.69 | inactive |
| MAF | 1 | -0.588 | -1.17 | 4.91 | inactive |
| MAF | 2 | -1.16 | -5.21 | 1.48 | inactive |
| MAF | 3 | -0.979 | -3.92 | 3.92 | inactive |
| LOC646388 | 1 | -0.589 | -1.18 | 2.67 | inactive |
| LOC646388 | 2 | 0.0603 | 3.39 | 5.06 | inactive |
| LOC646388 | 3 | 1.43 | 13 | 8.05 | inactive |
| GLOD4 | 1 | -0.0844 | 2.37 | 4.76 | inactive |
| GLOD4 | 2 | 0.52 | 6.62 | 7.05 | inactive |
| GLOD4 | 3 | 0.727 | 8.08 | 5.8 | inactive |
| TBC1D10C | 1 | -0.0648 | 2.51 | 4.85 | inactive |
| TBC1D10C | 2 | 0.236 | 4.63 | 5.28 | inactive |
| TBC1D10C | 3 | 1.79 | 15.6 | 10.5 | inactive |
| RNF181 | 1 | 1.18 | 11.2 | 6.8 | inactive |
| RNF181 | 2 | 0.107 | 3.72 | 5.27 | inactive |
| RNF181 | 3 | 0.835 | 8.84 | 7.89 | inactive |

A stretch from the list above:
| gene symbol | reagent no. | G2 robust z-score | G2 cells, % of GMNN control | raw share of cells in G2 (%) | activity call |
| --- | --- | --- | --- | --- | --- |
| LOC646388 | 2 | 0.0603 | 3.39 | 5.06 | inactive |
| LOC646388 | 3 | 1.43 | 13 | 8.05 | inactive |
| GLOD4 | 1 | -0.0844 | 2.37 | 4.76 | inactive |
| GLOD4 | 2 | 0.52 | 6.62 | 7.05 | inactive |
| GLOD4 | 3 | 0.727 | 8.08 | 5.8 | inactive |
| TBC1D10C | 1 | -0.0648 | 2.51 | 4.85 | inactive |
